## Percent effect of library compounds

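Cell assay of Leishmania donovani living inside macrophages; the read-out is not stated. Tested at 30 µM. The record gives no direction; compounds that gave an IC50 in retests scored well above the rest, so higher reads as stronger inhibition. Of about 69,000 compounds tested this way, about 1,000 (1.5%) reached 50% or more in at least one test.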

The filed quantity is “Percent Effect” (%). The record does not define 0% and 100%; most values in the screen are far below 50% and negative numbers occur (in some assays of this library far below -100). Compounds were drawn at random from those tested, without regard to their results. Two or more numbers in one place are separate tests of the same structure; such repeats can differ widely.

* CCN(C(C)c1cccc(O)c1)S(=O)(=O)c1cccnc1 (stereo not shown) : 8.736%
* CC(NCc1ccc(OCC(N)=O)cc1)c1ccc(Cl)cc1.Cl (stereo not shown) : 32.34%
* CCn1ccnc1CN1CCN(CCc2ccccn2)CC1C (stereo not shown) : 33.86%
* CN(C)C(=O)N1CCN(C(=O)c2cccc(Cl)c2)CC2(CNC(=O)C2)C1 (stereo not shown) : 10.39%
* CC(Cn1cccn1)NC(=O)NCCCN1CCCCCC1=O (stereo not shown) : 5.042%
* Cc1nn(-c2ccccc2)c(C)c1CNC(=O)NC1CC1 : 12.89%
* CCN(Cc1ccoc1)C(=O)NC1CCN(CC2CCCC2)CC1 : -1.11%
* CCOC1CCN(C(=O)c2csc(S(N)(=O)=O)c2)CC1 : 7.394%
* O=C(C1CCOC1)N1CCC2(CC1)COCCN(Cc1ccncc1)C2.O=C(O)C(F)(F)F.O=C(O)C(F)(F)F (stereo not shown) : 28.04%
* CCn1cnnc1C1CCN(C(=O)c2ccnc(N(C)C)c2)CC1 : 7.891%
* Brc1ccc(CN2CCC(NCc3ncc[nH]3)CC2)cc1 : 85.49%
* [H][C@]12C(=O)N[C@H](Cc3c[nH]c4ccccc34)C(=O)N1CC[C@@H]2NC(C)=O : 7.857%
* COc1cccc(CNC(C)Cn2cccn2)c1OC.Cl (stereo not shown) : 15.87%
* Cn1cc(C2CCCN2C(=O)Cc2n[nH]c3ccccc23)cn1 (stereo not shown) : -3.538%
* CCOc1ncccc1C(=O)N1CCCC1c1c(C)nn(C)c1OC (stereo not shown) : 7.977%
* COc1cc(NC(=O)NCCO)ccc1N1CCOC1=O : -5.634%
* CC(C)N1CCC2(CC1)C(=O)N(CCN(C)C)c1ccccc12.O=C(O)C(F)(F)F.O=C(O)C(F)(F)F : 15.13%
* CCC(=O)N(C)CC(=O)Nc1ccc(Br)cn1 : -21.18%
* O=C(O)C(F)(F)F.[H][C@@]12CO[C@@H](CNC(=O)c3nccn3C)[C@]1([H])CCN(CC1CC1)C2 : 33.21%
* [H][C@@]12CCN(Cc3c(C)noc3C)C[C@]1(C(=O)NC)CCO2 : 7.005%
* Cc1ccccc1N1CCN(c2cc(N(C)C)ncn2)C(C)C1 (stereo not shown) : 15.61%
* CN(C)Cc1cc(CC2(NCc3ccc(C#N)cc3)COC2)no1 : 9.818%
* CC(C)c1ncncc1C(=O)NCCN1CCCCC1C (stereo not shown) : 6.834%
* O=C(NCCCNc1ccccn1)NCC1CCS(=O)(=O)C1 (stereo not shown) : -15.09%
* COc1cccc(OCC2CCCN(C(=O)c3cc(C)n[nH]3)C2)c1 (stereo not shown) : -3.917%
* Cc1ccc(NC(C)(C)c2nnnn2-c2ccc(Cl)cc2)c(C)c1 : 2.494%
* CNC(=O)C(CCSC)NC(=O)c1ccc2ccccc2n1 (stereo not shown) : 24.04%
* O=C(O)C(F)(F)F.O=S1(=O)NCC2(CCN(c3ncccn3)CC2)COc2ccccc21 : -21.79%
* COCCC1(C(=O)O)CCN(c2cc(C)c3ccccc3n2)CC1 : 17.92%
* Cc1cc(NC(=O)CN2CCOC(Cn3nc(C)cc3C)C2)n(C)n1 (stereo not shown) : -7.971%
* CC(C)CNC(=O)c1cn(C(C)C)cc2c(=O)[nH]nc1-2 : 17.79%
* CN(C)c1ncnc2c1CCN(CC1CCOCC1)CC2.O=C(O)C(F)(F)F : 3.553%
* Cc1nn(C)c(Cl)c1C1CCCN1C(=O)c1ccc2c(c1)OCO2 (stereo not shown) : -9.865%
* CCN(CC(O)c1ccc(C)cc1)C(=O)NC(C)C (stereo not shown) : 41.63%
* CCCC(C#N)NC(=O)COC1CCCCC1 (stereo not shown) : -25.38%
* CC(C(N)=O)S(=O)(=O)Cc1cc(Cl)c2c(c1)OCO2 (stereo not shown) : -1.839%
* CCOC1CCN(C(=O)NCCc2ccn(-c3ccccc3)n2)CC1 : 2.822%
* CSCC(C)(O)CNC(=O)c1cc(F)ccc1Br (stereo not shown) : 7.56%
* CCN(CC)Cc1ccc(C(=O)NC2CCc3ccccc32)o1 (stereo not shown) : 13.88%
* CS(=O)(=O)N1CCN(C(=O)c2cc(-c3cccs3)cs2)CC1 : 6.336%
* [H][C@@]12COC[C@]1(COC)CN(C(=O)c1ccc(F)cc1C)C2 : -7.078%
* [H][C@@]12CCN(Cc3ccsc3)C[C@]1([H])[C@@H](CN1CCN(C)CC1)OC2 : -1.546%
* Cc1cc(C)n(-c2ccc3nnc(C)n3n2)n1 : -7.822%
* CC(C)n1nnc2c(sc3nc(N4CCOCC4)c4c(c32)CCC4)c1=O : 10.58%
* O=S1(=O)CCC(S(=O)(=O)c2cccc(S(=O)(=O)N3CCCC3)c2)C1 (stereo not shown) : 5.986%
* CC(C)(C)S(=O)(=O)c1ccc(N2CCN(c3ccccn3)CC2)nn1 : 7.427% & 12.56%
* O=C(Nc1ccc(Cl)cc1C(=O)NCCN1CCOCC1)c1ccco1 : -30.61%
* CC(C)CC(NC(=O)c1ccn(C)c(=O)c1)c1cccs1 (stereo not shown) : 9.856%
* CCCN(Cc1cccnc1)C(=O)C1CCN(Cc2ccco2)CC1 : 19.22%
* Cc1c(-c2c(-c3ccccc3)ncn2[C@@H](C(=O)O)[C@H](C)O)cnn1C : 50.58%
* Cn1ncc(C(=O)N2CCN(C(=O)c3ccco3)CC2)c1Cl : -9.597%
* CC(=O)N[C@@H]1C[C@H](Cc2ccccc2)O[C@H](c2ccc(C(=O)O)cc2)C1 : 16.86%
* Cc1nn(C)c(C)c1C1CCCN1c1ncnc2c1CCC2 (stereo not shown) : 30.84%
* Cn1cnc2c1CCN(CC(=O)NC1CCCCNC1=O)C2 (stereo not shown) : 11.1%
* CCOCC1CN(S(=O)(=O)CC)Cc2cnn(CC3CC3)c21.O=C(O)C(F)(F)F (stereo not shown) : 31.54%
* O=C(O)C(F)(F)F.O=C(O)C(F)(F)F.[H][C@@]12CCN(C(=O)c3cnn(C)c3)[C@@]1([H])CCN2Cc1cccnc1 : -14%
* COc1nc2c(cc1C(=O)NCc1noc(Cc3cccs3)n1)CCC2 : 7.249%

The first 5 entries again:

structure	Percent Effect
CCN(C(C)c1cccc(O)c1)S(=O)(=O)c1cccnc1 (stereo not shown)	8.736%
CC(NCc1ccc(OCC(N)=O)cc1)c1ccc(Cl)cc1.Cl (stereo not shown)	32.34%
CCn1ccnc1CN1CCN(CCc2ccccn2)CC1C (stereo not shown)	33.86%
CN(C)C(=O)N1CCN(C(=O)c2cccc(Cl)c2)CC2(CNC(=O)C2)C1 (stereo not shown)	10.39%
CC(Cn1cccn1)NC(=O)NCCCN1CCCCCC1=O (stereo not shown)	5.042%

Source: ChEMBL document CHEMBL3988442, “University of Dundee, Small-Polar-MMV Screening Library” (2021).